These results are taken from the supplement of paper PMC11150407.

The term cell viability denotes a read-out of living cells in per cent, often relative to untreated cells.

SMILES strings stand for the structures. Among all 2,100 compounds or so, about 180 (8.6%) showed an effect of 50% or more. This is one part of the list.

The test system of this experiment is MOLM1 and UCSD/AML1 (averaged). The experiment can be described thus: cell viability relative to DMSO control (POC); higher = less growth inhibition. The settings on record: 1 µM; 72 h. How it is done: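 Primary viability screen in the 3q26 EVI1-high AML cell lines MOLM1 and UCSD/AML1 (1.5e3 cells/well, 384-well), compounds at 1 uM for 72 h. ATP CellTiter-Glo read-out given as percent of viable cells over DMSO control (POC), averaged over duplicates. DMSO was the negative control and 5 uM etoposide the positive control. This mapping covers the MicroSource Spectrum and Selleck anticancer libraries (drug names).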
With `COC(=O)c1c(C)c2c(c(C)c1O)OC(=O)c1c(C)c(Cl)c(O)c(Cl)c1O2`, the cell viability is 108%.

As for `Cc1ccc(C)c(OCCCC(C)(C)C(=O)O)c1`, the cell viability stood at 100%.

As to `O=C(CCCN1CCC(O)(c2ccc(Cl)cc2)CC1)c1ccc(F)cc1`, the cell viability came out at 102%.

Consider `COc1cc2c(cc1OC)[C@@H]1Cc3ccc(OC)c(OC)c3CN1CC2`, for which the cell viability amounted to 108%.

On to `NCCC(=O)c1ccccc1N`, for which the cell viability is 103%.

Turning to `NC(=O)c1ccc[n+]([C@@H]2O[C@H](COP(=O)([O-])OP(=O)(O)OC[C@H]3O[C@@H](n4cnc5c(N)ncnc54)[C@H](O)[C@@H]3O)[C@@H](O)[C@H]2O)c1`, the cell viability came to 81.6%.

Consider `NCC(=O)CCC(=O)O`, for which the cell viability worked out at 110%.

For the compound `CN1CCC(CNc2ccc3ncc(-c4cccc(OC(F)(F)F)c4)n3n2)CC1` [SGI-1776 free base], the cell viability was determined as 80%.

Turning to `COc1c2ccoc2cc2oc(C)cc(=O)c12`, the cell viability stood at 104%.

Turning to `COc1ccc(CN(CCN(C)C)c2ncccn2)cc1`, the cell viability was 98.8%.

For `NCCS`, the cell viability amounted to 89.6%.

Regarding `COCCOC(=O)C1=C(C)NC(C)=C(C(=O)OC(C)C)C1c1cccc([N+](=O)[O-])c1` (configuration not stated), the cell viability came out at 97.7%.

For the compound `CN1C(C(=O)Nc2ccccn2)=C(O)c2ccccc2S1(=O)=O`, the cell viability was found to be 98.7%.

With `COc1c(C)c2c(c(O)c1C/C=C(\C)CCC(=O)OCCN1CCOCC1)C(=O)OC2` [Mycophenolate mofetil (CellCept)], the cell viability turned out to be 53%.

With `CC1(C)[C@@H](O)CC[C@]2(C)[C@H]3C(=O)C=C4[C@@H]5C[C@@](C)(C(=O)O)CC[C@]5(C)CC[C@@]4(C)[C@]3(C)CC[C@@H]12`, the cell viability was determined as 95.5%.

Regarding `C[C@]12CCC(=O)C=C1C=C[C@@H]1[C@@H]2CC[C@@]2(C)[C@H]1CC[C@@]21CCC(=O)O1`, the cell viability came out at 83.2%.

`C[C@H]1COC2(CCN(c3nc(=O)c4cc(C(F)(F)F)cc([N+](=O)[O-])c4s3)CC2)O1` (racemic) [BTZ043 racemate]: the cell viability amounted to 83.5%.

For the compound `CCNC(=O)c1noc(-c2cc(C(C)C)c(O)cc2O)c1-c1ccc(CN2CCOCC2)cc1` [Luminespib (AUY-922, NVP-AUY922)], the cell viability is 2.13%.

As to `CNCc1ccc(-c2[nH]c3cc(F)cc4c3c2CCNC4=O)cc1`, the cell viability was determined as 89.1%.

`Cc1c(NC(C)C)c(=O)n(-c2ccccc2)n1C`: the cell viability was determined as 96.4%.

`O=c1cc(-c2ccc(O)cc2)oc2cc(O[C@@H]3O[C@H](CO)[C@@H](O)[C@H](O)[C@H]3O)cc(O)c12`: the cell viability amounted to 104%.

As to `Cc1cnc(-c2cnc(NCCNc3ccc(C#N)cn3)nc2-c2ccc(Cl)cc2Cl)[nH]1`, the cell viability was 133%.

Regarding `Cc1c(NC(=O)OC[C@@H]2COCCN2)cn2ncnc(Nc3ccc4c(cnn4Cc4cccc(F)c4)c3)c12`, the cell viability worked out at 119%.

Consider `CC(C[N+](C)(C)C)OC(N)=O` (configuration not stated), for which the cell viability came to 98.3%.

`CC(C)c1cccc(=O)c(O)c1`: the cell viability came to 93.6%.

On to `CCCCCCCCCCOc1cc2c(O)c(C(=O)OCC)cnc2cc1OCC`, for which the cell viability was determined as 98.9%.

For `COc1ccc([C@@H]2Sc3ccccc3N(CCN(C)C)C(=O)[C@@H]2OC(C)=O)cc1`, the cell viability was 95.8%.

As to `Cc1cn([C@H]2C[C@H](N=[N+]=[N-])[C@@H](CO)O2)c(=O)[nH]c1=O`, the cell viability stood at 102%.

For `O=C1N=C(O)NC1(c1ccccc1)c1ccccc1`, the cell viability was found to be 110%.

On to `COc1cc(NS(=O)(=O)c2ccc(N)cc2)nc(OC)n1`, for which the cell viability turned out to be 98.3%.

Turning to `CC[N+](CC)(CC(=O)Nc1c(C)cccc1C)Cc1ccccc1`, the cell viability was determined as 87.4%.

For `CC1(C)O[C@@H]2[C@@H](CO[C@@]3(COS(N)(=O)=O)OC(C)(C)O[C@@H]23)O1`, the cell viability turned out to be 88.2%.

In the case of `COc1cc2ccc(=O)oc2cc1O`, the cell viability was found to be 94.7%.

Consider `O=C(O)CCCC[C@@H]1CCSS1`, for which the cell viability was 109%.

For `CC(=O)O[C@H]1C[C@@H](O)C(C)(C)[C@@H]2C[C@@H](OC(C)=O)[C@]3(C)[C@H](CC[C@@]4(C)[C@@H](c5ccoc5)OC(=O)[C@H]5O[C@@]534)[C@@]12C`, the cell viability was determined as 104%.

As to `NC(=O)N1c2ccccc2CC(=O)c2ccccc21`, the cell viability stood at 94.4%.

In the case of `Oc1nc(-c2ccc(C(F)(F)F)cc2)nc2c1CSCC2`, the cell viability was 110%.

On to `CC(C)Cn1cnc2c(N)nc3ccccc3c21` [Imiquimod], for which the cell viability was 47.9%.

Consider `CC(=O)OCC(=O)[C@@]1(O)[C@H](OC(C)=O)C[C@H]2[C@@H]3CCC4=CC(=O)C=C[C@]4(C)[C@@]3(F)[C@@H](O)C[C@@]21C`, for which the cell viability is 78.4%.

In the case of `O=C1OC(=O)[C@H]2[C@@H]1[C@@H]1CC[C@H]2O1`, the cell viability was determined as 104%.

Turning to `C[C@]12CCC3c4ccc(OS(=O)(=O)O)cc4CCC3C1CC[C@H]2O` (some centres not stated), the cell viability was 98.1%.

`CC(C)NC(=N)NC(=N)Nc1ccc(Cl)cc1`: the cell viability stood at 97.6%.

Consider `CCCC(=O)O[C@]1(C(=O)CO)CC[C@H]2[C@@H]3CCC4=CC(=O)CC[C@]4(C)[C@H]3[C@@H](O)C[C@@]21C`, for which the cell viability was determined as 83.5%.

Take `CC1(C)S[C@@H]2[C@H](NC(=O)COc3ccccc3)C(=O)N2[C@H]1C(=O)O`: the cell viability is 110%.

Take `COc1ccc2c3c1O[C@H]1C[C@@H](O)C=C[C@@]31CCN(C)C2`: the cell viability is 104%.

With `O=c1[nH]c(=O)n([C@H]2C[C@H](O)[C@@H](CO)O2)cc1C(F)(F)F`, the cell viability came out at 115%.

On to `Cc1nnc(SCC2=C(C(=O)O)N3C(=O)[C@@H](NC(=O)Cn4cnnn4)[C@H]3SC2)s1`, for which the cell viability came to 102%.

For the compound `Cn1cncc1[C@@](N)(c1ccc(Cl)cc1)c1ccc2c(c1)c(-c1cccc(Cl)c1)cc(=O)n2C` [Tipifarnib (Zarnestra)], the cell viability was found to be 36.5%.

On to `S=c1[nH]cnc2nc[nH]c12`, for which the cell viability stood at 96.5%.

Turning to `S=c1[nH]cnc2nc[nH]c12` [Mercaptopurine], the cell viability is 93.6%.

`COc1cc2c(cc1OC)[C@@H]1C(=O)c3ccc4c(c3O[C@@H]1CO2)C=CC(C)(C)O4`: the cell viability worked out at 80%.

Consider `CCCCCCCCNC(C)C(O)c1ccc(SC(C)C)cc1` (configuration not stated), for which the cell viability was 98.9%.

As to `C[C@H]1O[C@@H](O[C@H]2[C@@H](O)C[C@H](O[C@H]3[C@@H](O)C[C@H](O[C@H]4CC[C@@]5(C)[C@H](CC[C@@H]6[C@@H]5CC[C@]5(C)[C@@H](C7=CC(=O)OC7)CC[C@]65O)C4)O[C@@H]3C)O[C@@H]2C)C[C@H](O)[C@@H]1O`, the cell viability stood at 2.44%.

In the case of `C=C(C)[C@@H]1CC[C@]2(C)CC[C@]3(C)[C@H](CC[C@@H]4[C@@]5(C)CC[C@H](O)C(C)(C)[C@@H]5CC[C@]43C)[C@@H]12`, the cell viability came to 105%.

`O=C(NCCCNc1nc(Nc2cccc(NC(=O)N3CCCC3)c2)ncc1I)c1cccs1`: the cell viability came to 47.6%.

`CC1=CC2C(CC1=O)C(C)=CCC2C(C)C` (configuration not stated): the cell viability came out at 92.7%.

Turning to `NCCCCN`, the cell viability stood at 94.1%.
